# The list shows a part of the results.
# By UniProt entry, the sequences of proteins in these tests, tags left out. Where a name states a change or a piece, a line headed by the entry shows the natural chain unless it says otherwise.
# UniProt Q9NWU1, whole entry, looked up: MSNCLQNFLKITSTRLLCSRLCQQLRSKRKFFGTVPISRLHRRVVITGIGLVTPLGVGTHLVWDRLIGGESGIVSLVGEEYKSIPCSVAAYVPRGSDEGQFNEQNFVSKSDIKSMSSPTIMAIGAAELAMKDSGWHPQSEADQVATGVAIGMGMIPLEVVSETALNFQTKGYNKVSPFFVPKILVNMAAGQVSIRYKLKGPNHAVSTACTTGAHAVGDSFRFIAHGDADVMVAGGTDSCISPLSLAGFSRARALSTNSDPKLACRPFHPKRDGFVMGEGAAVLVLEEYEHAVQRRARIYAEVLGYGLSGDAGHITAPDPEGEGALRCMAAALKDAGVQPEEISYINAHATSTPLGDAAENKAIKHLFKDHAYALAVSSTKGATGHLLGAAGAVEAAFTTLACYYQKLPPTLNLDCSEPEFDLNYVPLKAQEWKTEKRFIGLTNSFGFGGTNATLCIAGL
# UniProt Q02218: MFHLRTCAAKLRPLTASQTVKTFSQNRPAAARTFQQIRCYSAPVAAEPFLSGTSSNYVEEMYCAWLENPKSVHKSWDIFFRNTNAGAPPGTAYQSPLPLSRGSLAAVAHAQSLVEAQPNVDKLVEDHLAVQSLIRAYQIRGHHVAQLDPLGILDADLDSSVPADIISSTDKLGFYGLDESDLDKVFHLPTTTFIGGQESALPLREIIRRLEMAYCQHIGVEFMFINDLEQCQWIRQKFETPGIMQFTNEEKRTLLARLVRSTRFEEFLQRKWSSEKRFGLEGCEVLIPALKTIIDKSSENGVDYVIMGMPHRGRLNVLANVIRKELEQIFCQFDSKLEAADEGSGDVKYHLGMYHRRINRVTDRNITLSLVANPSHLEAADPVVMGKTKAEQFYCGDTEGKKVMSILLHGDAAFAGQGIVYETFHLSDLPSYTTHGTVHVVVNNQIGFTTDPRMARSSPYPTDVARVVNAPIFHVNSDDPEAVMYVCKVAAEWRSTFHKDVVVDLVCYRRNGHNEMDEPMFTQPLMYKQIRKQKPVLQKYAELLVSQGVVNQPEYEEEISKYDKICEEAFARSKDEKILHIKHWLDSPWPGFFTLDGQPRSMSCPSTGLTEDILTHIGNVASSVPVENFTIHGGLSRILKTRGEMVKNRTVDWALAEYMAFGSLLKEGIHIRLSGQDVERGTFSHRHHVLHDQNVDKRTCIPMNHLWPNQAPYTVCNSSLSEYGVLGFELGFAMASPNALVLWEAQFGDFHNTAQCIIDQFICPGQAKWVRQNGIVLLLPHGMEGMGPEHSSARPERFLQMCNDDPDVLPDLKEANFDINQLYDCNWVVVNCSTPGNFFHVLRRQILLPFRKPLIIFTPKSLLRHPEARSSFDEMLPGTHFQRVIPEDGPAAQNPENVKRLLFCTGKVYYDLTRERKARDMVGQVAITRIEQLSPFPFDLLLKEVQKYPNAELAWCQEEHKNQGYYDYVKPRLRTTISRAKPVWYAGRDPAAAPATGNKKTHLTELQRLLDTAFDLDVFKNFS
# UniProt Q99567: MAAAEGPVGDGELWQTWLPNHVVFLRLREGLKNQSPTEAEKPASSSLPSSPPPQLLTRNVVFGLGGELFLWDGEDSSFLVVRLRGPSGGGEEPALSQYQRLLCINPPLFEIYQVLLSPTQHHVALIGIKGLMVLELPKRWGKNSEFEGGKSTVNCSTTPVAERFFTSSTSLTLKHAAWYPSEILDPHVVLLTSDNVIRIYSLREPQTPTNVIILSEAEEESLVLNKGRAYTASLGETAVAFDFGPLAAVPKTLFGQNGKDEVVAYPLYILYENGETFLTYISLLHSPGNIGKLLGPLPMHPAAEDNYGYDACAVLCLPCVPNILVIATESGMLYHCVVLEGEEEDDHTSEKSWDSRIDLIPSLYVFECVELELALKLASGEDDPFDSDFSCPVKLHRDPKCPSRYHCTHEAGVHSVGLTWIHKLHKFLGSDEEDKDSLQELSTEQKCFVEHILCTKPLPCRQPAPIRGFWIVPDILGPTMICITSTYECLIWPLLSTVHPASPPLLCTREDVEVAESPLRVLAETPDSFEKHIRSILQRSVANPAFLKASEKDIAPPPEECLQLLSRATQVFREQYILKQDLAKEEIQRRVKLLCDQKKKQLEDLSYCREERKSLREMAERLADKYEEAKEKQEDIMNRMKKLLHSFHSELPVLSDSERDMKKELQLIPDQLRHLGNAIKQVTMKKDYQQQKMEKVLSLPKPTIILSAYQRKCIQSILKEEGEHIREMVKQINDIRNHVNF
# UniProt Q9UQ80: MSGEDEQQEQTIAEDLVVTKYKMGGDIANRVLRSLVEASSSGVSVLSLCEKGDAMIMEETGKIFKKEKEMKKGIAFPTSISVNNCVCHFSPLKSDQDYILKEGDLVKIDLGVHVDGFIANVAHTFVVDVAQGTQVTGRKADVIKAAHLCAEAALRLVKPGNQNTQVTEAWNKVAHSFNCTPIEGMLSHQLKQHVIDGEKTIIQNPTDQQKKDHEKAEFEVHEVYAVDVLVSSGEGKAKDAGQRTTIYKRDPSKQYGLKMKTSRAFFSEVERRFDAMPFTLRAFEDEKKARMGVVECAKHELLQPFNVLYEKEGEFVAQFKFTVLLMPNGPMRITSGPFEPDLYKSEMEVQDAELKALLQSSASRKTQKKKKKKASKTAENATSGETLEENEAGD
# UniProt Q92621: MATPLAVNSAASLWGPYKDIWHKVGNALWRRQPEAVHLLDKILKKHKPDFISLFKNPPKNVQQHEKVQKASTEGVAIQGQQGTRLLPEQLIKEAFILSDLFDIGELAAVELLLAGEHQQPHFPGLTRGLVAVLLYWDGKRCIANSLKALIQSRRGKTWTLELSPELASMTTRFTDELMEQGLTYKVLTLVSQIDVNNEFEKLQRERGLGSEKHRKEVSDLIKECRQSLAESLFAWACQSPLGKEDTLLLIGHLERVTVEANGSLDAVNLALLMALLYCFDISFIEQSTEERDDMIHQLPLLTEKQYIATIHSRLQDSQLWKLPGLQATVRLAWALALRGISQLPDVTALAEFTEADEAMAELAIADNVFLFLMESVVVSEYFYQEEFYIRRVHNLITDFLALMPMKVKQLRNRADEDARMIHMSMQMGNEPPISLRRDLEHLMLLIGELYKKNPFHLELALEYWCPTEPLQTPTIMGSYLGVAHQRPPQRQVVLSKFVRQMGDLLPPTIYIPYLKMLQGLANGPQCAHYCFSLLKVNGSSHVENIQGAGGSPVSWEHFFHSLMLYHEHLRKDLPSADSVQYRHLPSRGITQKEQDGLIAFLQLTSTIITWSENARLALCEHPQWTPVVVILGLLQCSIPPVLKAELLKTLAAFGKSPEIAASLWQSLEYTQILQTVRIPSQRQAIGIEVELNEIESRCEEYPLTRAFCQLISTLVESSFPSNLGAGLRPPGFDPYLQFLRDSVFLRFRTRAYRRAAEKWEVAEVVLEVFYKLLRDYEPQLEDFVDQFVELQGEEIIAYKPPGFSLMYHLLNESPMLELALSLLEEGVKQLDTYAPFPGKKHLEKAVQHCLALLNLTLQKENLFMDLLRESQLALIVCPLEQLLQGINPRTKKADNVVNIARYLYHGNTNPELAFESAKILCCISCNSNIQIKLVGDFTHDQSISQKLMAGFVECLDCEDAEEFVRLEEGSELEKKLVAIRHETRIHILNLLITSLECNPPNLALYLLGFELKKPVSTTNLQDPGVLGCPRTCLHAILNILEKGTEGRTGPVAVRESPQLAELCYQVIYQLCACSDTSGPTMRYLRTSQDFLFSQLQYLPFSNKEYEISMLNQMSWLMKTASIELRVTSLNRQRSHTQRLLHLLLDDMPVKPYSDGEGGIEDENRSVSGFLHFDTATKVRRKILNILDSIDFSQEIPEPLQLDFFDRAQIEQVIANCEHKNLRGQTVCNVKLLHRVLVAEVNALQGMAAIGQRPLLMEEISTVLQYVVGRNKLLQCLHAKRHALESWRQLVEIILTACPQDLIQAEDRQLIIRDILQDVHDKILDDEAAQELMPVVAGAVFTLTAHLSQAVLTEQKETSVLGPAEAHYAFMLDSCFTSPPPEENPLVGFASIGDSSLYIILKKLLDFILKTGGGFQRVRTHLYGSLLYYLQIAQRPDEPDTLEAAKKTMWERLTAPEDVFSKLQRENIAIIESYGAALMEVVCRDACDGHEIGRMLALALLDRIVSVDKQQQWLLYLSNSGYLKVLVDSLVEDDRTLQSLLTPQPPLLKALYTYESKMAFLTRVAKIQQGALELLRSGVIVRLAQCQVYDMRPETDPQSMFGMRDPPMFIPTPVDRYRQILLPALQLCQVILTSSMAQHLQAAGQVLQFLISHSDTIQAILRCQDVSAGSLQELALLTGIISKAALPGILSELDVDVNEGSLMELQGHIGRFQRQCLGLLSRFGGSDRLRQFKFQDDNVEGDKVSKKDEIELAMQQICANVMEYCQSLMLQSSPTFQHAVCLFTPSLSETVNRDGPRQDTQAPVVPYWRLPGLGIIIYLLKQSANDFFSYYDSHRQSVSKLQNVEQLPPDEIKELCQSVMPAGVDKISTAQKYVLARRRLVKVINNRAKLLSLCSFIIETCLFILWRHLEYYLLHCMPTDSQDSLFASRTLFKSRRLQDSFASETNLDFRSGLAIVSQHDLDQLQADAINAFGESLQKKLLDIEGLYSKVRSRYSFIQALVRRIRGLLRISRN
# UniProt Q9Y266: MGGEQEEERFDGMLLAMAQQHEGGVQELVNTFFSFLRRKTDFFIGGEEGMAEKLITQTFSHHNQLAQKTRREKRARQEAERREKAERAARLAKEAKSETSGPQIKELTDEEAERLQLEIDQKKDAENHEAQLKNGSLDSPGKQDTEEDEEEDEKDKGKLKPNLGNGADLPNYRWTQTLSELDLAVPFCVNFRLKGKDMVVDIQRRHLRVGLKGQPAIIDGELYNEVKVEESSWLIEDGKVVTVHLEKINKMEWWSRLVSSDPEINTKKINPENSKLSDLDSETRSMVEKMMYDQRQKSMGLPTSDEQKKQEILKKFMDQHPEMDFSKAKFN
# UniProt Q96FW1, whole entry, looked up: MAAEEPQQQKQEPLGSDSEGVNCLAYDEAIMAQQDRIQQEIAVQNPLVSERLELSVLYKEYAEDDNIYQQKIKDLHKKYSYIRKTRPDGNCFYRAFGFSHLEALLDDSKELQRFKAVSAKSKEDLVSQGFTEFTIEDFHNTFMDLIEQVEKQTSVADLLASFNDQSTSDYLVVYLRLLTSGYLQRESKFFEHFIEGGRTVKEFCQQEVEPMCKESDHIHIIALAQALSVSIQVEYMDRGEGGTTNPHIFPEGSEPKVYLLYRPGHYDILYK
# UniProt Q96MG7: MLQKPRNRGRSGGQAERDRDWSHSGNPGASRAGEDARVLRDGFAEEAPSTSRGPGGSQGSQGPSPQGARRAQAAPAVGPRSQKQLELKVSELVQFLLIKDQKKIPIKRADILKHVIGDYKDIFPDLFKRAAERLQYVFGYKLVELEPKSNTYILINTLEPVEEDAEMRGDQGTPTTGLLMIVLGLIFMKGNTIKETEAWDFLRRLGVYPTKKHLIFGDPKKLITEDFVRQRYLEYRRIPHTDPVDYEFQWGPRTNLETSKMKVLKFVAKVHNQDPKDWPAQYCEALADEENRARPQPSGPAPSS
# UniProt Q8N543: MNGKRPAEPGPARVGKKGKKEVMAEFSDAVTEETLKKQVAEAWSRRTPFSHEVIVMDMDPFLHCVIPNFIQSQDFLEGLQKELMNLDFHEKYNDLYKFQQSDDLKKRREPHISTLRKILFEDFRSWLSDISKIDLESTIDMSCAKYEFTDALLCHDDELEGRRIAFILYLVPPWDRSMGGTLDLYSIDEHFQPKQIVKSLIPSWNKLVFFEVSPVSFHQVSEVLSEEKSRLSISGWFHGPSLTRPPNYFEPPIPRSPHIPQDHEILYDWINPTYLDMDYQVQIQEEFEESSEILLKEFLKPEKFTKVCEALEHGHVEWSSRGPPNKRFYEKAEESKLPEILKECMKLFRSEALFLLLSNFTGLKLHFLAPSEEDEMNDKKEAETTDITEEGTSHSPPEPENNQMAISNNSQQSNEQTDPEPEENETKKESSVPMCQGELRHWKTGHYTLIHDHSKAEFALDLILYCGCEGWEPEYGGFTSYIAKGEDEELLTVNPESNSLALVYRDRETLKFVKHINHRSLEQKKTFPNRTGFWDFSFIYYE
# UniProt Q9BQG2: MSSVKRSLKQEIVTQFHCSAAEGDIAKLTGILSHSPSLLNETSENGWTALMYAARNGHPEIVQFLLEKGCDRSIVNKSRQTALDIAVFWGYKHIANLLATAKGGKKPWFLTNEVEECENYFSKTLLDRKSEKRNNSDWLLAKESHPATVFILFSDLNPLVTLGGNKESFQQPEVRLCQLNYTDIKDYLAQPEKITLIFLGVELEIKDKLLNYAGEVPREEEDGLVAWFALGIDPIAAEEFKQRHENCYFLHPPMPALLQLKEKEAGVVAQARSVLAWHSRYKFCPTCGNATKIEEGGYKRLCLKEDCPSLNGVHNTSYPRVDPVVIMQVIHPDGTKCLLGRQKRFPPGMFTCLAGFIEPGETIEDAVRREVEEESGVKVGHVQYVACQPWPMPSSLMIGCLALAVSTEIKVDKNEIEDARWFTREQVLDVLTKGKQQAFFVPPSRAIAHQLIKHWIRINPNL
# Key:
# Experiment in all cases: log2 fold change, soluble protein after heating vs DMSO (PISA); higher = thermal stabilisation; K562 cells, 10 uM, 30 min; active = over 0.2 and 3.5 SD of the protein, either way, in both replicates (recomputed)
# bafetinib = compound: Cc1ccc(NC(=O)c2ccc(CN3CC[C@H](N(C)C)C3)c(C(F)(F)F)c2)cc1Nc1nccc(-c2cncnc2)n1 [bafetinib]
# Method in brief: (§1)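 K562 cells (2×10^6 cells/mL) were treated with 10 μM compound for 30 min, and aliquots were heated for 3 min over 48°C-58°C. Pooled aliquots were extracted in PBS with 0.5% NP-40 at 4°C, and the supernatant after 21,000xg for 90 min was measured by TMTpro 16plex LC-MS/MS with channel sums equalised. Reported thermal stability, relative to control samples and from duplicates, is a log2 fold change.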
# [1] = compound: Cc1cccc(CC(=O)N2CCc3c2ccc(-c2cn(C)c4ncnc(N)c24)c3F)n1
# Method in brief: as §1
# nilotinib = compound: Cc1cn(-c2cc(NC(=O)c3ccc(C)c(Nc4nccc(-c5cccnc5)n4)c3)cc(C(F)(F)F)c2)cn1 [nilotinib]
# Method in brief: as §1
# [2] = compound: Cc1nc(Nc2n[nH]c3c2CN(C(=O)N[C@H](CN(C)C)c2ccccc2)C3(C)C)c2sccc2n1
# Method in brief: as §1
# dasatinib = compound: Cc1nc(Nc2ncc(C(=O)Nc3c(C)cccc3Cl)s2)cc(N2CCN(CCO)CC2)n1 [dasatinib]
# Method in brief: as §1
# [3] = compound: Cc1ncc(-c2ccnc(Nc3ccc(S(C)(=O)=O)cc3)n2)n1C(C)C
# Method in brief: as §1
# [4] = compound: Cn1cc(-c2ccc3c(c2)CCN3C(=O)Cc2cccc(C(F)(F)F)c2)c2c(N)ncnc21
# Method in brief: as §1
# [5] = compound: Cn1cc(-c2ccc3nnc(C(F)(F)c4ccc5ncccc5c4)n3n2)cn1
# Method in brief: as §1
# tipifarnib = compound: Cn1cncc1[C@@](N)(c1ccc(Cl)cc1)c1ccc2c(c1)c(-c1cccc(Cl)c1)cc(=O)n2C [tipifarnib]
# Method in brief: as §1
# mubritinib = compound: FC(F)(F)c1ccc(/C=C/c2nc(COc3ccc(CCCCn4ccnn4)cc3)co2)cc1 [mubritinib]
# Method in brief: as §1
# [6] = compound: NC(=O)Nc1cc(-c2cccc(F)c2)sc1C(=O)N[C@H]1CCCNC1
# Method in brief: as §1
# [7] = compound: NC(=O)c1cnc(N[C@@H]2CCCC[C@@H]2N)nc1Nc1cccc(-n2nccn2)c1
# Method in brief: as §1
# [8] = compound: NC1(c2ccc(-c3nc4ccn5c(=O)[nH]nc5c4cc3-c3ccccc3)cc2)CCC1
# Method in brief: as §1
# [9] = compound: NCC(=O)Nc1ccc(-n2nc(C(F)(F)F)cc2-c2ccc3c(ccc4ccccc43)c2)cc1
# Method in brief: as §1
# entinostat = compound: Nc1ccccc1NC(=O)c1ccc(CNC(=O)OCc2cccnc2)cc1 [entinostat]
# Method in brief: as §1
# vorinostat = compound: O=C(CCCCCCC(=O)Nc1ccccc1)NO [vorinostat]
# Method in brief: as §1
# citarinostat = compound: O=C(CCCCCCNC(=O)c1cnc(N(c2ccccc2)c2ccccc2Cl)nc1)NO [citarinostat]
# Method in brief: as §1
# silmitasertib = compound: O=C(O)c1ccc2c(c1)nc(Nc1cccc(Cl)c1)c1ccncc12 [silmitasertib]
# Method in brief: as §1
# [10] = compound: O=C1NC(=O)C(c2cnc3ccccn23)=C1c1cn2c3c(cc(F)cc13)CN(C(=O)N1CCCCC1)CC2
# Method in brief: as §1
# [11] = compound: c1cc(OCCN2CCCCC2)cc(-c2n[nH]c3ccc(-c4nnc[nH]4)cc23)c1
# Method in brief: as §1
Target,log2 fold change (bafetinib),log2 fold change [1],log2 fold change (nilotinib),log2 fold change [2],log2 fold change (dasatinib),log2 fold change [3],log2 fold change [4],log2 fold change [5],log2 fold change (tipifarnib),log2 fold change (mubritinib),log2 fold change [6],log2 fold change [7],log2 fold change [8],log2 fold change [9],log2 fold change (entinostat),log2 fold change (vorinostat),log2 fold change (citarinostat),log2 fold change (silmitasertib),log2 fold change [10],log2 fold change [11]
NUDT15 (UniProt Q9NV35),inactive: -0.033,inactive: -0.094,inactive: 0.005,inactive: 0.014,inactive: -0.038,inactive: -0.03,inactive: 0.119,inactive: -0.013,inactive: 0.023,inactive: 0.083,inactive: -0.065,inactive: 0.022,inactive: -0.051,inactive: -0.002,inactive: -0.016,inactive: 0.063,inactive: 0.015,inactive: -0.033,inactive: -0.049,inactive: 0.007
OXSM (UniProt Q9NWU1),inactive: -0.063,inactive: -0.034,inactive: 0.029,inactive: -0.002,inactive: 0.031,inactive: -0.015,inactive: 0.029,inactive: 0.021,inactive: -0.009,inactive: 0.023,inactive: 0.016,inactive: 0.068,inactive: -0.026,inactive: 0.049,inactive: -0.019,inactive: -0.028,inactive: 0.037,inactive: -0.04,inactive: -0.011,inactive: -0.015
OGDH (UniProt Q02218),inactive: 0.177,inactive: 0.171,inactive: -0.03,inactive: 0.161,inactive: 0.002,inactive: -0.025,inactive: 0.038,inactive: 0.078,inactive: 0.056,inactive: 0.191,inactive: 0.039,inactive: 0.025,inactive: -0.027,inactive: 0.028,inactive: 0,inactive: 0.058,inactive: -0.022,inactive: -0.063,inactive: 0.029,inactive: -0.032
NUP88 (UniProt Q99567),inactive: 0.013,inactive: 0.126,inactive: -0.116,inactive: -0.015,inactive: -0.11,inactive: -0.106,inactive: -0.109,inactive: -0.103,inactive: -0.075,inactive: -0.004,inactive: -0.058,inactive: 0.027,inactive: -0.027,inactive: -0.031,inactive: 0.035,inactive: 0.103,inactive: 0.025,inactive: 0.141,inactive: 0.057,inactive: -0.038
PA2G4 (UniProt Q9UQ80),inactive: 0.094,inactive: 0.022,inactive: -0.018,inactive: 0.088,inactive: -0.046,inactive: 0.029,inactive: 0.062,inactive: -0.018,inactive: -0.061,inactive: 0.038,inactive: 0,inactive: -0.011,inactive: -0.022,inactive: -0.034,inactive: 0.011,inactive: 0.02,inactive: 0.035,inactive: -0.038,inactive: 0.191,inactive: -0.053
NUMA1 (UniProt Q14980),inactive: 0.121,inactive: 0.005,inactive: 0.031,inactive: -0.22,inactive: 0.019,inactive: -0.013,inactive: -0.194,inactive: -0.031,inactive: 0.086,inactive: -0.043,inactive: -0.117,inactive: -0.091,inactive: -0.139,inactive: 0.101,inactive: 0.072,inactive: 0.002,inactive: 0.01,inactive: 0.005,inactive: 0.007,inactive: -0.12
NUP205 (UniProt Q92621),inactive: -0.052,inactive: 0,inactive: -0.042,inactive: -0.025,inactive: -0.133,inactive: -0.004,inactive: -0.005,inactive: -0.052,inactive: -0.072,inactive: 0.017,inactive: -0.042,inactive: -0.023,inactive: -0.075,inactive: -0.1,inactive: 0.017,inactive: 0.041,inactive: 0.101,inactive: 0.058,inactive: -0.073,inactive: -0.069
NUDC (UniProt Q9Y266),inactive: -0.034,inactive: 0.012,inactive: -0.013,inactive: -0.012,inactive: -0.017,inactive: -0.018,inactive: 0.063,inactive: 0.012,inactive: -0.006,inactive: 0.053,inactive: -0.044,inactive: -0.039,inactive: -0.084,inactive: -0.06,inactive: 0.009,inactive: 0.018,inactive: -0.051,inactive: -0.01,inactive: -0.055,inactive: 0.025
OTUB1 (UniProt Q96FW1),inactive: -0.038,inactive: 0.047,inactive: -0.067,inactive: -0.016,inactive: 0.01,inactive: -0.01,inactive: 0.03,inactive: -0.038,inactive: -0.051,inactive: 0.031,inactive: -0.012,inactive: -0.014,inactive: -0.113,inactive: -0.059,inactive: 0.004,inactive: 0.064,inactive: 0.066,inactive: -0.049,inactive: -0.066,inactive: -0.019
OPA1 isoform 2 (UniProt O60313),inactive: -0.022,inactive: 0.069,inactive: -0.039,inactive: -0.025,inactive: -0.169,inactive: -0.004,inactive: 0.054,inactive: -0.031,inactive: -0.12,inactive: 0.062,inactive: -0.046,inactive: -0.054,inactive: -0.165,inactive: -0.072,inactive: 0.024,inactive: 0.033,inactive: 0.05,inactive: -0.027,inactive: -0.033,inactive: -0.048
NUP37 (UniProt Q8NFH4),inactive: -0.037,inactive: 0.036,inactive: -0.003,inactive: -0.015,inactive: 0.048,inactive: -0.009,inactive: -0.013,inactive: -0.001,inactive: -0.039,inactive: 0.014,inactive: -0.025,inactive: -0.041,inactive: -0.045,inactive: -0.037,inactive: -0.004,inactive: 0.046,inactive: 0.055,inactive: 0.041,inactive: -0.103,inactive: -0.029
NSMCE3 (UniProt Q96MG7),inactive: 0.046,inactive: -0.051,inactive: -0.039,inactive: -0.019,inactive: 0.077,inactive: -0.035,inactive: -0.031,inactive: -0.008,inactive: -0.125,inactive: 0.085,inactive: 0.123,inactive: -0.106,inactive: 0.015,inactive: 0.017,inactive: -0.048,inactive: -0.127,inactive: -0.004,inactive: 0.028,inactive: 0.059,inactive: -0.156
NTMT1 (UniProt Q9BV86),inactive: 0.009,inactive: 0.068,inactive: 0.056,inactive: 0,inactive: -0.036,inactive: 0.023,inactive: 0.073,inactive: 0.076,inactive: 0.043,inactive: 0.138,inactive: -0.035,inactive: 0.027,inactive: 0.077,inactive: -0.002,inactive: 0.024,inactive: -0.089,inactive: -0.069,inactive: -0.028,inactive: -0.029,–
NSMCE4A (UniProt Q9NXX6),inactive: -0.145,inactive: -0.144,inactive: 0.189,inactive: -0.254,inactive: -0.051,inactive: 0.03,inactive: 0.025,inactive: -0.131,inactive: 0.026,active: 0.552,inactive: 0.181,inactive: 0.059,inactive: 0,inactive: -0.023,inactive: -0.087,inactive: -0.155,inactive: -0.018,inactive: 0.149,inactive: -0.038,inactive: -0.067
OGFOD1 (UniProt Q8N543),inactive: -0.042,inactive: -0.033,inactive: -0.015,inactive: 0.039,inactive: -0.009,inactive: -0.021,inactive: 0.01,inactive: 0.078,inactive: -0.05,inactive: -0.04,inactive: 0.015,inactive: 0.021,inactive: -0.08,inactive: -0.056,inactive: -0.002,inactive: 0.005,inactive: 0.012,inactive: 0.02,inactive: -0.072,inactive: -0.006
NUDT12 (UniProt Q9BQG2),inactive: -0.002,inactive: -0.051,inactive: 0.038,inactive: -0.006,inactive: 0.004,inactive: 0.027,inactive: 0.019,inactive: 0.061,inactive: -0.039,inactive: 0.108,inactive: -0.005,inactive: 0.025,inactive: -0.038,inactive: -0.02,inactive: -0.044,inactive: -0.035,inactive: 0.031,inactive: -0.029,inactive: -0.032,inactive: 0.031

# Some of the entries so far, bar-delimited.
Target | log2 fold change (bafetinib) | log2 fold change [1] | log2 fold change (nilotinib) | log2 fold change [2] | log2 fold change (dasatinib) | log2 fold change [3] | log2 fold change [4] | log2 fold change [5] | log2 fold change (tipifarnib) | log2 fold change (mubritinib) | log2 fold change [6] | log2 fold change [7] | log2 fold change [8] | log2 fold change [9] | log2 fold change (entinostat) | log2 fold change (vorinostat) | log2 fold change (citarinostat) | log2 fold change (silmitasertib) | log2 fold change [10] | log2 fold change [11]
NUDT15 (UniProt Q9NV35) | inactive: -0.033 | inactive: -0.094 | inactive: 0.005 | inactive: 0.014 | inactive: -0.038 | inactive: -0.03 | inactive: 0.119 | inactive: -0.013 | inactive: 0.023 | inactive: 0.083 | inactive: -0.065 | inactive: 0.022 | inactive: -0.051 | inactive: -0.002 | inactive: -0.016 | inactive: 0.063 | inactive: 0.015 | inactive: -0.033 | inactive: -0.049 | inactive: 0.007
OXSM (UniProt Q9NWU1) | inactive: -0.063 | inactive: -0.034 | inactive: 0.029 | inactive: -0.002 | inactive: 0.031 | inactive: -0.015 | inactive: 0.029 | inactive: 0.021 | inactive: -0.009 | inactive: 0.023 | inactive: 0.016 | inactive: 0.068 | inactive: -0.026 | inactive: 0.049 | inactive: -0.019 | inactive: -0.028 | inactive: 0.037 | inactive: -0.04 | inactive: -0.011 | inactive: -0.015
NSMCE4A (UniProt Q9NXX6) | inactive: -0.145 | inactive: -0.144 | inactive: 0.189 | inactive: -0.254 | inactive: -0.051 | inactive: 0.03 | inactive: 0.025 | inactive: -0.131 | inactive: 0.026 | active: 0.552 | inactive: 0.181 | inactive: 0.059 | inactive: 0 | inactive: -0.023 | inactive: -0.087 | inactive: -0.155 | inactive: -0.018 | inactive: 0.149 | inactive: -0.038 | inactive: -0.067

# Source: the supplement of paper PMC10849652
